Here are results for one substance from article PMC4294638.

Assay [1] deals with T1, Gerbich-type glycophorin C, endogenous, of Gerbich-negative human erythrocytes (human (endogenous in erythrocytes)) (UniProt P04921).
T1 sequence: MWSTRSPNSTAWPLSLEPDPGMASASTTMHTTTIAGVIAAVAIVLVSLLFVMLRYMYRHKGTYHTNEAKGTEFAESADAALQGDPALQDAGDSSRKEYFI
Description: far-Western, overlay or dot blot; proteins of normal or Gerbich erythrocyte membranes resolved by SDS-PAGE, blotted on nitrocellulose, overlaid with Region II (50ug/ml) in TBS overnight at room temperature; detected with anti-c-myc MoAb 9E10; only the binder purified.

For assay [2], the target named is T2, glycophorin D, the truncated form of GPC lacking a.a. residues 1-21 (human (endogenous in erythrocytes)) (UniProt P04921).
T2 sequence: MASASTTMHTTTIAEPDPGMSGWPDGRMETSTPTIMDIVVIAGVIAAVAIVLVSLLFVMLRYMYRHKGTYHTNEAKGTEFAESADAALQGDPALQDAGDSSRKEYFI
Described as above.

The target of assay [3] is T3, recombinant Gerbich-type glycophorin C expressed in CHO cells (human) (UniProt P04921).
T3 sequence: T1 sequence
Description: flow cytometry on cells; Region II (4 ug) incubated with 1x10^6 CHO cells expressing recombinant GPC or its deletion forms Gerbich and Yus; detected with rabbit anti-Region II serum and FITC anti-rabbit Ig; only the binder purified. A general note: In flow cytometry, cells or beads pass a laser one at a time.

Assay [4] concerns the target T4, recombinant glycophorin C expressed in CHO cells (human) (UniProt P04921).
T4 sequence: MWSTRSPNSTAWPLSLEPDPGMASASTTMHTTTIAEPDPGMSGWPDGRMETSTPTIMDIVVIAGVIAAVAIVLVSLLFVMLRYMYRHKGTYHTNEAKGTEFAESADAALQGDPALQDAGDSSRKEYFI
The assay is described as above.

No constants are given. Whether binding was seen depends on the method and setting. For some of these results: A result given as binding can be weak or reduced; the word gives no strength.

“recombinant, baculovirus-expressed Region II of P. falciparum EBA-140 ligand (domain or fragment)”: the binding result in assay [1] was “no binding (tested: 50ug/ml)”; in assay [2], “no binding (tested: 50ug/ml)”; in assay [3], “no binding (tested: 4 ug)”; in assay [4], “binds weakly”.
